Results are given in words; binding and its absence hold for the method and conditions named. Binding seen in cells or lysates may run through a third protein. Here binding means that the protein was enriched with, or labelled near, the bait; the list need not be complete.
B1: O-GlcNAc transferase (protein, UniProt O15294 1-1046)
chain: MASSVGNVADSTEPTKRMLSFQGLAELAHREYQAGDFEAAERHCMQLWRQEPDNTGVLLLLSSIHFQCRRLDRSAHFSTLAIKQNPLLAEAYSNLGNVYKERGQLQEAIEHYRHALRLKPDFIDGYINLAAALVAAGDMEGAVQAYVSALQYNPDLYCVRSDLGNLLKALGRLEEAKACYLKAIETQPNFAVAWSNLGCVFNAQGEIWLAIHHFEKAVTLDPNFLDAYINLGNVLKEARIFDRAVAAYLRALSLSPNHAVVHGNLACVYYEQGLIDLAIDTYRRAIELQPHFPDAYCNLANALKEKGSVAEAEDCYNTALRLCPTHADSLNNLANIKREQGNIEEAVRLYRKALEVFPEFAAAHSNLASVLQQQGKLQEALMHYKEAIRISPTFADAYSNMGNTLKEMQDVQGALQCYTRAIQINPAFADAHSNLASIHKDSGNIPEAIASYRTALKLKPDFPDAYCNLAHCLQIVCDWTDYDERMKKLVSIVADQLEKNRLPSVHPHHSMLYPLSHGFRKAIAERHGNLCLDKINVLHKPPYEHPKDLKLSDGRLRVGYVSSDFGNHPTSHLMQSIPGMHNPDKFEVFCYALSPDDGTNFRVKVMAEANHFIDLSQIPCNGKAADRIHQDGIHILVNMNGYTKGARNELFALRPAPIQAMWLGYPGTSGALFMDYIITDQETSPAEVAEQYSEKLAYMPHTFFIGDHANMFPHLKKKAVIDFKSNGHIYDNRIVLNGIDLKAFLDSLPDVKIVKMKCPDGGDNADSSNTALNMPVIPMNTIAEAVIEMINRGQIQITINGFSISNGLATTQINNKAATGEEVPRTIIVTTRSQYGLPEDAIVYCNFNQLYKIDPSTLQMWANILKRVPNSVLWLLRFPAVGEPNIQQYAQNMGLPQNRIIFSPVAPKEEHVRRGQLADVCLDTPLCNGHTTGMDVLWAGTPMVTMPGETLASRVAASQLTCLGCLELIAKNRQEYEDIAVKLGTDLEYLKKVRGKVWKQRISSPLFNTKQYTMELERLYLQMWEHYAAGNKPDHMIKPVEVTESA

Amino acid sequences for entries named in this document (tags omitted).
UniProt O14686: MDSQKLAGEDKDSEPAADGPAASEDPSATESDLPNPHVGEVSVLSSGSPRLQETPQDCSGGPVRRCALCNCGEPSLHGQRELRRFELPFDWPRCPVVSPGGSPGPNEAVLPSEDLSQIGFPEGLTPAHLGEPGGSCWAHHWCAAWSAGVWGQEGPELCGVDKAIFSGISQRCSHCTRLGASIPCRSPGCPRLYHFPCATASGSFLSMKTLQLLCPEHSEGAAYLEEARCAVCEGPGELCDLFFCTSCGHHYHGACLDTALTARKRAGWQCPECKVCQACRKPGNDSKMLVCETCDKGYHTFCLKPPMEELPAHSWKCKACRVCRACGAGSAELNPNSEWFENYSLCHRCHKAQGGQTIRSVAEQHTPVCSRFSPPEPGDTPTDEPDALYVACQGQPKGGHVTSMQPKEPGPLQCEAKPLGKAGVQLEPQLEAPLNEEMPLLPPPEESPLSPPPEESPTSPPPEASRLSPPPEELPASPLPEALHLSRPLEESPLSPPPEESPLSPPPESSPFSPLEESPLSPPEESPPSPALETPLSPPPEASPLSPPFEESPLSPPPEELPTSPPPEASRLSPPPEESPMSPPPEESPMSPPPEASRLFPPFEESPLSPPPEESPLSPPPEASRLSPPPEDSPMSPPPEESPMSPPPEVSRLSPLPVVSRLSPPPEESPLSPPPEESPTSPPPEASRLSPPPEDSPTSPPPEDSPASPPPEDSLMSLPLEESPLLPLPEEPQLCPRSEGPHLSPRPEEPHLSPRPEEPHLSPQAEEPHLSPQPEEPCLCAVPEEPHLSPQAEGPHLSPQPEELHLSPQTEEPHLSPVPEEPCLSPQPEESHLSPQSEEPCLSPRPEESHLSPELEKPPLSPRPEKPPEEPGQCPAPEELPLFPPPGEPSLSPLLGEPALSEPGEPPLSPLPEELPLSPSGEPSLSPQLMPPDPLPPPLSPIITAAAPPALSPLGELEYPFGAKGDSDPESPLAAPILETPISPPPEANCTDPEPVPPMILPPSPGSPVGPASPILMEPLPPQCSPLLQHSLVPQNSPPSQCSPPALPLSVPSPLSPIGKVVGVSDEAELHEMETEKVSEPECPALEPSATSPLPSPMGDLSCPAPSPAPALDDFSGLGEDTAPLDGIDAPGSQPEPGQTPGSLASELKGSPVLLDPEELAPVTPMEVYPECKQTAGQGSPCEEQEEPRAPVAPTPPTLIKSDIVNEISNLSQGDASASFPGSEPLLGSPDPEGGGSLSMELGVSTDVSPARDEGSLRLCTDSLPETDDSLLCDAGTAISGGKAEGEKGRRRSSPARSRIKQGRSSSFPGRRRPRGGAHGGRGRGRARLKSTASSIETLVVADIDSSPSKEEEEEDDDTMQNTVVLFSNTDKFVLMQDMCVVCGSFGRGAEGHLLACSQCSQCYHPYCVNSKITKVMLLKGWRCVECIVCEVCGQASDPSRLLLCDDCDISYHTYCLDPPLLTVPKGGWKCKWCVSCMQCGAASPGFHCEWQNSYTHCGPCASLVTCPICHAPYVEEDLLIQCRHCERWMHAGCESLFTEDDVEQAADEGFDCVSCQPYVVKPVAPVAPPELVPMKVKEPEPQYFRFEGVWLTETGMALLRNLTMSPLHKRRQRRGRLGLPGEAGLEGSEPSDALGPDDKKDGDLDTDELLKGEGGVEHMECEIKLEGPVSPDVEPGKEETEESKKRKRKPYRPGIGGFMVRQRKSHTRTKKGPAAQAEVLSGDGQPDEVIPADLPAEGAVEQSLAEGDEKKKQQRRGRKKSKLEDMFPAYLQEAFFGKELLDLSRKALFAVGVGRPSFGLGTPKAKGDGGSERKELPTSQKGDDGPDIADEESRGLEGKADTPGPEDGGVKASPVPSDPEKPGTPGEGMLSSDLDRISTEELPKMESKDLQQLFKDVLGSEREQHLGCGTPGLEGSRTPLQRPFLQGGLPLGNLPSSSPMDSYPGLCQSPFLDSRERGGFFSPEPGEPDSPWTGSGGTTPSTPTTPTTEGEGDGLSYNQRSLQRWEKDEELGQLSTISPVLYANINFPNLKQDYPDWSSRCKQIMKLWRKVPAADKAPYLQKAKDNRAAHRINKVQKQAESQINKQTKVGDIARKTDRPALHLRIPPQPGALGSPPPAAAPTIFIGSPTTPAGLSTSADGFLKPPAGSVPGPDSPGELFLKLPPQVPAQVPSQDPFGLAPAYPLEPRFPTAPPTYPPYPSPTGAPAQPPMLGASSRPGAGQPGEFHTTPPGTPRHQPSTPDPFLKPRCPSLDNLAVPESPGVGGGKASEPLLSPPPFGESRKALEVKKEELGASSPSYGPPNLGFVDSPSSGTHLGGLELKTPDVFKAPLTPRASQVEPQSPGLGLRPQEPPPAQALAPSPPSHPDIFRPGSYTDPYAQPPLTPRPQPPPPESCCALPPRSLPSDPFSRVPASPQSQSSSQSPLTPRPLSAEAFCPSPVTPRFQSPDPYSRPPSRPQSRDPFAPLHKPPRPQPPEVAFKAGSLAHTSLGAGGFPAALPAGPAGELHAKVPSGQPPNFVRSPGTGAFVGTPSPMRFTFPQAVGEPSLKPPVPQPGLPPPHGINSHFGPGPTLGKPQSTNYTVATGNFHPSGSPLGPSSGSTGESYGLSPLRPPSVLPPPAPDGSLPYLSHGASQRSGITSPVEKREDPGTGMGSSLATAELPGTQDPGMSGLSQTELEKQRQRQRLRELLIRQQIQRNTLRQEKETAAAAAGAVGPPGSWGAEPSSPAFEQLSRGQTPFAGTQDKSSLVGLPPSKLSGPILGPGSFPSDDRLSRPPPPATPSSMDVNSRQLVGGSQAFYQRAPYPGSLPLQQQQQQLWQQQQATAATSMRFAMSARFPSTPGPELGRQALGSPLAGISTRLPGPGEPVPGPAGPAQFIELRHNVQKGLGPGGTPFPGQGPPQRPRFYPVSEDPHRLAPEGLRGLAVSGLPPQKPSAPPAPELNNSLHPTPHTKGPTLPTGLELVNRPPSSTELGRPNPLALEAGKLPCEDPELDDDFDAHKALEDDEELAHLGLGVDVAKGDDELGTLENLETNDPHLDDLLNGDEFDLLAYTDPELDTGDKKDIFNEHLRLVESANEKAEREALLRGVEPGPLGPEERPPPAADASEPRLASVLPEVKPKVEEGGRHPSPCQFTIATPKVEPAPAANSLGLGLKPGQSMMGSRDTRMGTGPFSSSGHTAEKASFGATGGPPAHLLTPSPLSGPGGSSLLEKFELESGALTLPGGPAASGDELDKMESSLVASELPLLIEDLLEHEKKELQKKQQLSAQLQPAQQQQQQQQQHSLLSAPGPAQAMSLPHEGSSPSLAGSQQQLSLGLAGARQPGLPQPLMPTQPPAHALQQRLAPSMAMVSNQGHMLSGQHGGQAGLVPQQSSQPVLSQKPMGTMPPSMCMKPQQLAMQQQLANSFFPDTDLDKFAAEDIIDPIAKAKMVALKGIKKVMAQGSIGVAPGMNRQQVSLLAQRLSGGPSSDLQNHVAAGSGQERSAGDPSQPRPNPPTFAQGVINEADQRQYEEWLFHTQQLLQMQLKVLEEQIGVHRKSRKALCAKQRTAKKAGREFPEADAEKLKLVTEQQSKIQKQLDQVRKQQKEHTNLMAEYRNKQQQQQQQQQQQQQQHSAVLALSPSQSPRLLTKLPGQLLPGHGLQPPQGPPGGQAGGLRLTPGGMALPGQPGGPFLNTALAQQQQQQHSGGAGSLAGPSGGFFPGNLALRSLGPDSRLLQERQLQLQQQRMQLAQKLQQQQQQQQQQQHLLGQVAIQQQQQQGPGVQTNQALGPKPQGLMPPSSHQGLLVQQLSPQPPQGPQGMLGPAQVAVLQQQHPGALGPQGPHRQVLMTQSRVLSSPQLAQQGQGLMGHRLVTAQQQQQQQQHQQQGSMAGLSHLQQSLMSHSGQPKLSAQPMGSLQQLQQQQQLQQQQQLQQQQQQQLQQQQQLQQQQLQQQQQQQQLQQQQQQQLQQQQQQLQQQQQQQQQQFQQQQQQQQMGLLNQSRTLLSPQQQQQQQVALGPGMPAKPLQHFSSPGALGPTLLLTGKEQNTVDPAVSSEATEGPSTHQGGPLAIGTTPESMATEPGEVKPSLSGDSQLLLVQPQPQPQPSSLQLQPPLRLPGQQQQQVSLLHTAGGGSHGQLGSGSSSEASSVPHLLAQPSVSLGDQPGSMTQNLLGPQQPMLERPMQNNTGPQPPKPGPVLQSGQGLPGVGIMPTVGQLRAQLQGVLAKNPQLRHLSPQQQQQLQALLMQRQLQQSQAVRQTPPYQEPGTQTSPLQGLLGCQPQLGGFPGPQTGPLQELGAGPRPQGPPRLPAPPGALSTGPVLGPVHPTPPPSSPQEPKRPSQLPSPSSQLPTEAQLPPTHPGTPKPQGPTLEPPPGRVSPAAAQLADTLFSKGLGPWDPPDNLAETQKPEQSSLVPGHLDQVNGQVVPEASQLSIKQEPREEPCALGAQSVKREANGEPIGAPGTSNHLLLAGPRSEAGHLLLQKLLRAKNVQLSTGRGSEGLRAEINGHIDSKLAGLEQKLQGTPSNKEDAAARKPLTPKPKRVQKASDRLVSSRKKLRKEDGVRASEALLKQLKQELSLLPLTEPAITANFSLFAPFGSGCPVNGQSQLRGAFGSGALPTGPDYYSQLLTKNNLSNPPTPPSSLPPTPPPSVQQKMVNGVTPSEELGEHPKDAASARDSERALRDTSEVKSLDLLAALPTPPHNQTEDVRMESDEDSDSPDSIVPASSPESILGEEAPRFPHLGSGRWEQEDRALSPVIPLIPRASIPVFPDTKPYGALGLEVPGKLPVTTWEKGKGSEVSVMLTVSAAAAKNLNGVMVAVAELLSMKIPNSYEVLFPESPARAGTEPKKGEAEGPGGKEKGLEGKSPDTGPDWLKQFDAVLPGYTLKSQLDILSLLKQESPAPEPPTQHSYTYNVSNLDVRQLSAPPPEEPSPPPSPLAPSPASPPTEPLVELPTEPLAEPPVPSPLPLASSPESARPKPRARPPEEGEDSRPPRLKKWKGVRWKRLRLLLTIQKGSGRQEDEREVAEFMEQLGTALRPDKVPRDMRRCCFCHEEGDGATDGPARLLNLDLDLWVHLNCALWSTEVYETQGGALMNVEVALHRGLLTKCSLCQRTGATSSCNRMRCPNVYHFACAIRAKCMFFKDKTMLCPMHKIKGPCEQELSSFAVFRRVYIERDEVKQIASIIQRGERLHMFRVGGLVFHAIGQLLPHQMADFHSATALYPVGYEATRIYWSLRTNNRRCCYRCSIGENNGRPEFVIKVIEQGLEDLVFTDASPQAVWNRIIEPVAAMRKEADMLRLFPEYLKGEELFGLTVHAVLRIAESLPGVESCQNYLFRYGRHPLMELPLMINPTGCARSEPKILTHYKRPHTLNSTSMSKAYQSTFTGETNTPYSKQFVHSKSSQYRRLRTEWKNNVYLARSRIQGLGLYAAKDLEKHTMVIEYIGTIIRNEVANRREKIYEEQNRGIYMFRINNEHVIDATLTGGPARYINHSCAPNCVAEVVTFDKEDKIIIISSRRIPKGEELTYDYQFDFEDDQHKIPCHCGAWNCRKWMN

Target: KMT2D (human (endogenous in HEK293A)) (UniProt O14686)
Experiment: affinity purification with mass spectrometry

Molecule | binding
MSH6 (from UniProt P52701 1-1360) | binds
STAG2 (from UniProt Q8N3U4 1-1231) | binds
B1 | binds

Reference: paper doi:10.1101/2024.01.17.575929
